Construct, isoform or probe ends are uncertain for at least one entry. At least one verdict rests on a figure or table, not on a statement of the authors.
System: SRF (1-266) in complex with SND1 + SND1 (1-660)
Assay: EMSA
Settings: SRF and SND1 together; Beyotime GS009 chemiluminescent EMSA kit binding buffer (composition, salt and pH not given), 20 fmol biotin probe, 0.1 ug protein, 10 min at room temperature; recombinant protein; label: biotin

Row | Sequence | binding result
1 | CCTATATAGACCTATATAGACCTATATAGACCTATATAGACCTATATAGA (double strand) [Cdk2 CArG probe] | binds
2 | CCTATTTAGTCCTATTTAGTCCTATTTAGTCCTATTTAGTCCTATTTAGT (double strand) [Iqgap1 CArG probe] | binds
3 | CCATATTAGGCCATATTAGGCCATATTAGGCCATATTAGGCCATATTAGG (double strand) [Fos CArG probe] | binds
4 | CCTTAAATGGCCTTAAATGGCCTTAAATGGCCTTAAATGGCCTTAAATGG (double strand) [Rock2 CArG probe] | binds

From article PMC10817852, “Vascular injury activates the ELK1/SND1/SRF pathway to promote vascular smooth muscle cell proliferative phenotype and neointimal hyperplasia”
